Results on 21 substances are retold here after patent US11230581B2, “Peptides and combination of peptides for use in immunotherapy against ovarian cancer and other cancers” (Immatics Biotechnologies GmbH, priority 2015, dated 2022).

In the series the test system is additional tumor types. Briefly: LC-MS detection and over-presentation of the peptides on additional tumor types, cell lines and primary cultures. Further details: species or system human. The settings on record: for Additional organs/cancerous diseases: additional tumor types with over-presentation on more than 5% of the measured tumor samples, or presentation on more than 5% with ratio of geometric means tumor vs normal tissues larger than 3; for Other relevant organs/ cancerous diseases: Table 4A: additional tumor types on which the peptide was found, over-presented on more than 5% of measured tumor samples, or presented on more than 5% with ratio of geometric means tumor vs normal tissues larger than 3.

On to “417 (NLQDTEYNL; listed as Homo sapiens) [compound 417]”, for which the Additional organs/cancerous diseases entry was “CLL, AML, NHL”.

On to “422 (FLPKLLLLA; listed as Homo sapiens) [compound 422]”, for which the “Other relevant organs/ cancerous diseases” value is recorded as “BrCa” and the Additional organs/cancerous diseases result was “Melanoma”.

Take “445 (GLYQDPVTL; listed as Homo sapiens) [compound 445]”: the Additional organs/cancerous diseases result is “Uterine Cancer, AML”. “449 (KLAEGLDIQL; listed as Homo sapiens) [compound 449]”: the “Other relevant organs/ cancerous diseases” value was “SCLC, Colon, Rectum”. “452 (ILLEHGADPNL; listed as Homo sapiens) [compound 452]”: the “Other relevant organs/ cancerous diseases” value is “HCC, Leukemia, Melanoma” and the Additional organs/cancerous diseases result is given as “CLL, Urinary Bladder Cancer, NHL”.

With “453 (KLLEATSAV; listed as Homo sapiens) [compound 453]”, the Additional organs/cancerous diseases result is “SCLC, BRCA, Uterine Cancer, Gallbladder Cancer and Bile Duct Cancer, AML, NHL, HNSCC”. With “467 (FLAKDFNFL; listed as Homo sapiens) [compound 467]”, the Additional organs/cancerous diseases result was “NSCLC, Melanoma, Urinary Bladder Cancer, Gallbladder Cancer and Bile Duct Cancer, NHL, HNSCC”. Same read-out and setting: the value for “469 (YLASDEITTV; listed as Homo sapiens) [compound 469]” was “CLL”. Turning to “485 (NVPDSFNEV; listed as Homo sapiens) [compound 485]”, the “Other relevant organs/ cancerous diseases” value was “Stomach”.

For the substance “493 (GLLGEKTQDLIGV; listed as Homo sapiens) [compound 493]”, the “Other relevant organs/ cancerous diseases” value is given as “NSCLC, SCLC”; the Additional organs/cancerous diseases result was “CLL, Melanoma, Urinary Bladder Cancer, Uterine Cancer, Gallbladder Cancer and Bile Duct Cancer, HNSCC”. In the case of “524 (ALIENLTHQI; listed as Homo sapiens) [compound 524]”, the Additional organs/cancerous diseases result is recorded as “CLL, Melanoma, NHL”. On the same count and under the same terms, in the case of “532 (ALNNLLHSL; listed as Homo sapiens) [compound 532]” it was “Melanoma, Esophageal Cancer, Urinary Bladder Cancer, Uterine Cancer, Gallbladder Cancer and Bile Duct Cancer, AML, NHL”. On to “533 (RMVAEIQNV; listed as Homo sapiens) [compound 533]”, for which the “Other relevant organs/ cancerous diseases” value was “Leukemia, Esophageal Cancer” and the Additional organs/cancerous diseases entry was “CLL, NHL”. Consider “534 (HLANIVERL; listed as Homo sapiens) [compound 534]”, for which the Additional organs/cancerous diseases result is given as “CLL”.

For “535 (KLIAQNLEL; listed as Homo sapiens) [compound 535]”, the “Other relevant organs/ cancerous diseases” value is “Colon, Rectum” and the Additional organs/cancerous diseases entry is listed as “AML, NHL, HNSCC”. On to “536 (YLVEGRFSV; listed as Homo sapiens) [compound 536]”, for which the “Other relevant organs/ cancerous diseases” value is listed as “Leukemia” and the Additional organs/cancerous diseases result was “CLL, Urinary Bladder Cancer”. As for “542 (RVWDISTVSSV; listed as Homo sapiens) [compound 542]”, the “Other relevant organs/ cancerous diseases” value was “SCLC, Leukemia, Melanoma, Esophageal Cancer” and the Additional organs/cancerous diseases entry is “NSCLC, CLL, BRCA”. For “544 (LLWDVPAPSL; listed as Homo sapiens) [compound 544]”, the “Other relevant organs/ cancerous diseases” value is on record as “Leukemia, Melanoma” and the Additional organs/cancerous diseases entry is reported as “CLL, Uterine Cancer, HNSCC”. “547 (TLDITPHTV; listed as Homo sapiens) [compound 547]”: the Additional organs/cancerous diseases result was “Esophageal Cancer”. On to “548 (ALWENPESGEL; listed as Homo sapiens) [compound 548]”, for which the Additional organs/cancerous diseases result is listed as “BRCA”. For “549 (AMLENASDIKL; listed as Homo sapiens) [compound 549]”, the “Other relevant organs/ cancerous diseases” value is “Melanoma” and the Additional organs/cancerous diseases result was “SCLC, CLL, Urinary Bladder Cancer”.
